Reference: US20080306001A1, “TRANSCRIPTIONAL MODULATION OF EXTRACELLULAR MATRIX (ECM) OF DERMAL FIBROBLASTS” (priority 2007, published 2008)

Legend:
dermal fibroblasts [1] = assay: Effect of interfering peptides on expression of ECM components, mRNA level (RT-PCR); assay type: cell-based, human; settings: peptide 1 μM, 24 hours
Description: (§1) Human dermal fibroblasts were cultured in standard conditions (DMEM, 10% FCS, penicillin+streptomycin) and used in experiments after three passages in the laboratory. Cells were grown in 24 well plates, each treatment in triplicates. Cells were plated 16 hours prior treatments started. Peptides were added to the media, and media was changed every day during 7 day experiment. CPP concentration was 10 μM.
(§2) Total RNA from various human tissues was purified using RNAwiz (Ambion, USA) and subjected to subsequent DNase I treatment using the DNA-Free kit (Ambion). Total RNA from cancer cells was purified by using 4PCRmini kit (Ambion). First-strand cDNAs were synthesized with Superscript III reverse transcriptase (Invitrogen, USA) and 5 μg of total RNA using oligo d(T) priming in a final reaction volume of 50 μL
(§3) The cDNA was amplified by PCR using the 2,5U Hot-Firepol (Solis BioDyne, Estonia) and buffer Yellow (Naxo, Estonia). Reaction was performed in a 10 ul volume, using 0.5 ul cDNA as a template. Following primer sets were designed for this study:
(§4) The cells were treated with peptides (1 μM) 24 hours for the mRNA analysis and 72 hours for protein analysis. All experiments were done in triplicates. Variation between replicates was less that 15%.

human dermal fibroblasts [2] = assay: Effect of peptides on expression of growth factors, protein (Western blot); assay type: cell-based; settings: peptide 10 μM
Description: as §1, with “12” for “24”
(§5) Western blots using antibodies against growth factors were performed using standard protocols. Cells were lysed in SDS loading buffer and separated on 5% SDS PAGE following transfer onto PVD membrane using semidry blotting. Antibodies were diluted 1:2000 and incubated for 2 hours followed by secondary antibody conjugated to alkaline phosphatase. Antibody binding was visualized using one step BCIP reagent (Pierce).

human dermal fibroblasts [3] = assay: Effect of peptides on expression of growth factors, mRNA (RT-PCR); assay type: cell-based; settings: for CTGF mRNA, fold stimulation of expression compared to control / HGF mRNA, fold stimulation of expression compared to control / IGF-1 mRNA, fold stimulation of expression compared to control / VEGF mRNA, fold stimulation of expression compared to control / b-FGF mRNA, fold stimulation of expression compared to control: peptide 10 μM; for expression of CTGF (in words): protein and mRNA
Description: as §1, with “12” for “24”
as §2
as §3, with “Primer” for “Following primer”, “designed to specifically amplify the nucleic acid sequence for the corresponding growth factor” for “designed”, “study: […]” for “study:”

human dermal fibroblasts [4] = assay: Whole genome gene expression analysis (Affymetrix GeneChip Human Gene 1.0 ST Array); assay type: cell-based; settings: peptide 10 μM, 24 hour
Description: Human dermal fibroblasts were cultured in standard conditions (DMEM, 10% FCS, penicillin+streptomycin) and used in experiments after three passages in the laboratory. Cells were grown in 60 mm plates, each treatment in duplicates. Cells were plated 16 hours prior treatments started. Peptides (10 μM) were added to the media, and cells were collected for RNA isolation 24 hour later.
Total RNA was purified by using 4PCRmini kit (Ambion). First-strand cDNAs were synthesized with Superscript III reverse transcriptase (Invitrogen, USA) and 5 μg of total RNA using oligo d(T) priming in a final reaction volume of 50 μL and used to generate fluorescently labeled probes for whole genome gene expression analysis. Whole genome gene expression analysis was conducted using Affymetrix GeneChip™ Human Gene 1.0 ST Array.

dermal fibroblasts [5] = assay: Effect of interfering peptides on expression of ECM components, protein level (Western blot); assay type: cell-based, human
Description: as §1
as §5, with “blot” for “blots”, “fibronectin, thrombospondin, collagen I, collagen II, collagen 4, elastin, MMP1, MMP2, MMP7 and TIMP1” for “growth factors”
as §4

[6] = system: human dermal fibroblast cell lines obtained from elderly patients; assay: Effect of CPP mimicking peptides on synthesis of collagen I, collagen II and elastin in aged dermal fibroblasts (Western blot); assay type: cell-based; settings: peptide 10 μM
Description: The ability to interfere interaction of TAF4, BRG1 and N-CoR1 with the active transcriptional complex and stimulate synthesis of collagen I, collagen II and elastin was tested on 2 human dermal fibroblast cell lines obtained from elderly patients. It has been shown that: • TAF4 suppression using siRNA stimulates expression of numerous genes in embryonic fibroblasts. (Mengus G, Fadloun A, Kobi D, Thibault C, Perletti L, Michel I, Davidson I. 2005. TAF4 inactivation in embryonic fibroblasts activates TGFbeta signaling and autocrine growth. EMBO J. 2005 Aug. 3; 24(15):2753-67.) • Brg1 inhibits numerous genes during development. (Inayoshi Y, Kaneoka H, Machida Y, Terajima M, Dohda T, Miyake K, Iijima S. 2005. Repression of GR-mediated expression of the tryptophan oxygenase gene by the SWI/SNF complex during liver development. J Biochem (Tokyo). 2005 October; 138(4):457-65) • N-CoR1 plays a crucial role in the repressive activity of diverse transcription factors (J. Frasor, J. M. Danes, C. C. Funk and B. S. Katzenellenbogen. 2005. Estrogen down-regulation of the corepressor N-CoR: Mechanism and implications for estrogen derepression of N-CoR-regulated genes. PNAS. vol. 102 no. 37, 13153-13157.) • SMAD7 functions as a component of negative feedback regulation that controls timining and extent of TGFbeta signaling (Zhu X, Topouzis S, Liang L F, Stotish RL. Myostatin signaling through Smad2, Smad3 and Smad4 is regulated by the inhibitory Smad7 by a negative feedback mechanism. Cytokine. 2004 Jun. 21; 26(6):262-72.) • TAF10 is one of the TATA box-binding protein-associated factors (TAFs), which constitute the TFIID complex.
as §1
as §5, with “blot” for “blots”, “fibronectin, thrombospondin, collagen I, collagen II, collagen 4, elastin, MMP1, MMP2, MMP7 and TIMP1” for “growth factors”

[7] = fibroblast 1 (first block of Table 1)
[8] = second block of Table 1 (also fibroblast 1)

Sequence | CTGF protein, fold stimulation of expression compared to control (human dermal fibroblasts [2]) [fold] | HGF protein, fold stimulation of expression compared to control (human dermal fibroblasts [2]) [fold] | IGF-1 protein, fold stimulation of expression compared to control (human dermal fibroblasts [2]) [fold] | VEGF protein, fold stimulation of expression compared to control (human dermal fibroblasts [2]) [fold] | b-FGF protein, fold stimulation of expression compared to control (human dermal fibroblasts [2]) [fold] | CTGF mRNA, fold stimulation of expression compared to control (human dermal fibroblasts [3]) [fold] | HGF mRNA, fold stimulation of expression compared to control (human dermal fibroblasts [3]) [fold] | IGF-1 mRNA, fold stimulation of expression compared to control (human dermal fibroblasts [3]) [fold] | VEGF mRNA, fold stimulation of expression compared to control (human dermal fibroblasts [3]) [fold] | b-FGF mRNA, fold stimulation of expression compared to control (human dermal fibroblasts [3]) [fold] | expression of CTGF (in words) (human dermal fibroblasts [3]) | Number of genes with altered expression: expression stimulated 2-5 fold (human dermal fibroblasts [4]) | Number of genes with altered expression: expression stimulated more than 5 fold (human dermal fibroblasts [4]) | Number of genes with altered expression: expression suppressed 2-5 fold (human dermal fibroblasts [4]) | Number of genes with altered expression: expression suppressed more than 5 fold (human dermal fibroblasts [4]) | also measured
RPKKRKVRRRNRAGFEASDPRIIRLISLAAQKFISDIANDALQ [TAF10.1, CPP-mimicking peptide] | 13 | 1 | 1 | 1 | 2 | 18 | 2 | 2 | 2 | 8 | stimulate expression of CTGF significantly | 786 | 451 | 543 | 298 | MMP1 mRNA, fold stimulation (dermal fibroblasts [1]): 3.9 fold; MMP7 mRNA, fold stimulation (dermal fibroblasts [1]): 1.9 fold; MMp2 mRNA, fold stimulation (dermal fibroblasts [1]): 7.9 fold; TIMP mRNA, fold stimulation (dermal fibroblasts [1]): 4.8 fold; collagen IV mRNA, fold stimulation (dermal fibroblasts [1]): 9.0 fold; collagenI mRNA, fold stimulation (dermal fibroblasts [1]): 7.9 fold; elastin mRNA, fold stimulation (dermal fibroblasts [1]): 4.7 fold; fibronectin mRNA, fold stimulation (dermal fibroblasts [1]): 9.8 fold; thrombospondin mRNA, fold stimulation (dermal fibroblasts [1]): 12.7 fold; expression of components of ECM (in words) (dermal fibroblasts [5]; dermal fibroblasts in vitro, protein and mRNA): stimulate expression of components of ECM; CollagenI protein, fold stimulation (dermal fibroblasts [5]; peptide 1 μM, 72 hours): 3.9 fold; Elastin protein, fold stimulation (dermal fibroblasts [5]; peptide 1 μM, 72 hours): 2.4 fold; Fibronectin protein, fold stimulation (dermal fibroblasts [5]; peptide 1 μM, 72 hours): 2.6 fold; MMP1 protein, fold stimulation (dermal fibroblasts [5]; peptide 1 μM, 72 hours): 1.3 fold; MMP2 protein, fold stimulation (dermal fibroblasts [5]; peptide 1 μM, 72 hours): 1.5 fold; MMP7 protein, fold stimulation (dermal fibroblasts [5]; peptide 1 μM, 72 hours): 1.7 fold; TIMP protein, fold stimulation (dermal fibroblasts [5]; peptide 1 μM, 72 hours): 2.7 fold; collagen IV protein, fold stimulation (dermal fibroblasts [5]; peptide 1 μM, 72 hours): 2.9 fold; thrombospondin protein, fold stimulation (dermal fibroblasts [5]; peptide 1 μM, 72 hours): 2.9 fold
RPKKRKVRRRSRWTEEEMEVAKKGLVEHGRNWAAIAKMVG [N-CoR1.1, CPP-mimicking peptide] | 9 | 2 | 1.2 | 1 | 3 | 12 | 5 | 2 | 2 | 23 | stimulate expression of CTGF significantly | 1192 | 251 | 1286 | 76 | collagen I, fold increase after 7 days [6, 7]: 1.5 fold; collagen II, fold increase after 7 days [6, 7]: 3 fold; elastin, fold increase after 7 days [6, 7]: 7 fold; collagen I, fold increase after 7 days [6, 8]: 5 fold; collagen II, fold increase after 7 days [6, 8]: 3 fold; elastin, fold increase after 7 days [6, 8]: 3 fold
